In publication PMC11173892 one finds binding data, which are given here for 17 molecules.

Sequences of proteins named here, by UniProt entry; tags and fusion partners are left off. A change or cut given only in a name is not applied to a line headed by its entry. Residues count along the entry.
UniProt Q15165: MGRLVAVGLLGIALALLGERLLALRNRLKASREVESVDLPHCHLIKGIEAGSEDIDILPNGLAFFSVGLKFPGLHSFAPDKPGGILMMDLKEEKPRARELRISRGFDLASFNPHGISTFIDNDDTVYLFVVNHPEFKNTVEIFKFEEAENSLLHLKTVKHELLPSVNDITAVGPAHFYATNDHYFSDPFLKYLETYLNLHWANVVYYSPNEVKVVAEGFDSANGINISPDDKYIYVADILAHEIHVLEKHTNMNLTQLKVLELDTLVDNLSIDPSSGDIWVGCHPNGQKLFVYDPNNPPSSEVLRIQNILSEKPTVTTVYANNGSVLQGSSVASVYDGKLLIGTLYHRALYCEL
UniProt P12235: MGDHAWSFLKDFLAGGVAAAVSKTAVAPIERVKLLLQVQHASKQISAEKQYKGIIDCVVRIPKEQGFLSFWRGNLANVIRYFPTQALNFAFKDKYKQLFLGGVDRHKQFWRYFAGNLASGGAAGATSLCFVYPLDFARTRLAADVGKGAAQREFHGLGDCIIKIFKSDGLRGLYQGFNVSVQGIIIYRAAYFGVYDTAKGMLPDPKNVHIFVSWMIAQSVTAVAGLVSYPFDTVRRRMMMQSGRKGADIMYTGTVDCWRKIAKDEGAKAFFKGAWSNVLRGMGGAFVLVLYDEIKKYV
UniProt P25705, residues 44-553: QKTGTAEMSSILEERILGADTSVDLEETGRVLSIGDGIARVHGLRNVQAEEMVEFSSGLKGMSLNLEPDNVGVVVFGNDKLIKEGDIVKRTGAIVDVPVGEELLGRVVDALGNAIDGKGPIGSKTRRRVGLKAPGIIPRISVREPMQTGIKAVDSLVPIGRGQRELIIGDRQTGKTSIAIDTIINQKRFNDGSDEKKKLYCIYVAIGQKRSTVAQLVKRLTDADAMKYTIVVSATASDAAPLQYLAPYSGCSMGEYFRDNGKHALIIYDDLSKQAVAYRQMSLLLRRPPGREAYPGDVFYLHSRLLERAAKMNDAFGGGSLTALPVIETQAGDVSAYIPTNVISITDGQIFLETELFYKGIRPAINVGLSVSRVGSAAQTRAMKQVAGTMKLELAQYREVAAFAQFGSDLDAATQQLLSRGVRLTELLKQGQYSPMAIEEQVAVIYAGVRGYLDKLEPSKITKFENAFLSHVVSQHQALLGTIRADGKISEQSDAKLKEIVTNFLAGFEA
UniProt P68104: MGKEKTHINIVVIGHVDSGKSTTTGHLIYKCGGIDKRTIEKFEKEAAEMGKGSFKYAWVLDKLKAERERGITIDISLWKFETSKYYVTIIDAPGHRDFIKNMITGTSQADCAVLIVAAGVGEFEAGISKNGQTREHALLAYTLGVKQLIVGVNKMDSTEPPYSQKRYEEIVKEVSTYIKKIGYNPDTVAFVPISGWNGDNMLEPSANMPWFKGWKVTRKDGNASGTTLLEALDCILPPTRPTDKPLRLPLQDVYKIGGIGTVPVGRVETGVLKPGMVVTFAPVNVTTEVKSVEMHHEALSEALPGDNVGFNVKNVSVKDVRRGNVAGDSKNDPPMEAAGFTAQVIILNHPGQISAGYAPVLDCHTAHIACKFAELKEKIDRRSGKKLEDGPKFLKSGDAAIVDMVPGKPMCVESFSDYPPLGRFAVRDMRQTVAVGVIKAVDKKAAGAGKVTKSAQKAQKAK
UniProt P04264: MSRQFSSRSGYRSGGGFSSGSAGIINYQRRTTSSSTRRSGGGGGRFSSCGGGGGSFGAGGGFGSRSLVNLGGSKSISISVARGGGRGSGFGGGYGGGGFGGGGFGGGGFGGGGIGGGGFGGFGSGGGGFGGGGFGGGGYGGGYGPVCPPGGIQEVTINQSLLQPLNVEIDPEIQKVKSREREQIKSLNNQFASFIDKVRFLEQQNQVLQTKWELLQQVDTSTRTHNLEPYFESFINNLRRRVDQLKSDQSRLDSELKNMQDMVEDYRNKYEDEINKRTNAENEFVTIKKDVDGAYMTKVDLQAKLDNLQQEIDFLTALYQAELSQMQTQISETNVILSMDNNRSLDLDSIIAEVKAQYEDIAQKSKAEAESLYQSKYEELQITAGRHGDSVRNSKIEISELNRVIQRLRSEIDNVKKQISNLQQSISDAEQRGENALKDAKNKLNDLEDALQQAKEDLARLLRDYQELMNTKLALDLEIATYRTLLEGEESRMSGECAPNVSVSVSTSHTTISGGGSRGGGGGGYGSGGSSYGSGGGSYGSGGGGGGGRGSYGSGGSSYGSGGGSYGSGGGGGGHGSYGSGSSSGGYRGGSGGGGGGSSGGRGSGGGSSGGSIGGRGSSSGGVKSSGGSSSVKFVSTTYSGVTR
UniProt P08729: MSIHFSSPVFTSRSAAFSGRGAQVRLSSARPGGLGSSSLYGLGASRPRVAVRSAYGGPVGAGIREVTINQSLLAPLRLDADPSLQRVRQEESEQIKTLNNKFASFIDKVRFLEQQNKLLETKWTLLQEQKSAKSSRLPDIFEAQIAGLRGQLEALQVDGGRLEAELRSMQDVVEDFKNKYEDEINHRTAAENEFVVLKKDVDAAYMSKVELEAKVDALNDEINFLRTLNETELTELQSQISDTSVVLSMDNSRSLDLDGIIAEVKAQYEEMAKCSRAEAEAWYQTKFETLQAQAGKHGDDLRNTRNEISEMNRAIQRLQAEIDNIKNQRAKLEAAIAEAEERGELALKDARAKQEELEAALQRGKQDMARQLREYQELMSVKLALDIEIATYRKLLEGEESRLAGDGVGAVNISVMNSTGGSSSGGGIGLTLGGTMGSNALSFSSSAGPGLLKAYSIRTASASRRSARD
UniProt Q15365: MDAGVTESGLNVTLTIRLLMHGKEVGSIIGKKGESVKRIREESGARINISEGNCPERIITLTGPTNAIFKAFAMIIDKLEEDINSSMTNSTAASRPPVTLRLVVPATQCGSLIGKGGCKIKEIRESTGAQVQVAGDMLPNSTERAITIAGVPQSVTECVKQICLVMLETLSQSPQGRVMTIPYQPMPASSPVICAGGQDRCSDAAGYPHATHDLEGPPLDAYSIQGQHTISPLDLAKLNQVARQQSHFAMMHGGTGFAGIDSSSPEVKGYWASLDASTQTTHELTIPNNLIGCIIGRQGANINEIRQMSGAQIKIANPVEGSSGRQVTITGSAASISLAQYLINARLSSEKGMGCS
UniProt P68371: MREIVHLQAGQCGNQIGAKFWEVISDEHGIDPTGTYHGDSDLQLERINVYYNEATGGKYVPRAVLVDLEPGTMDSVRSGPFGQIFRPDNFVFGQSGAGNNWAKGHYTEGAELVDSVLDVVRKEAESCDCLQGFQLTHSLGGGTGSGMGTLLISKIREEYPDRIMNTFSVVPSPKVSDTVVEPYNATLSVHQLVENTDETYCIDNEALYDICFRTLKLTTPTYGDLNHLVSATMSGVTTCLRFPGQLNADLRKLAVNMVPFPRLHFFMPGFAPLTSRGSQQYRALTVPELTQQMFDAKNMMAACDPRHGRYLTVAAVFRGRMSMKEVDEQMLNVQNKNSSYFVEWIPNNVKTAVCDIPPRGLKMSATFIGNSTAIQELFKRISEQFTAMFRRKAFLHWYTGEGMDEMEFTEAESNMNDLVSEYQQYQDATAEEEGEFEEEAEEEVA
UniProt P68363: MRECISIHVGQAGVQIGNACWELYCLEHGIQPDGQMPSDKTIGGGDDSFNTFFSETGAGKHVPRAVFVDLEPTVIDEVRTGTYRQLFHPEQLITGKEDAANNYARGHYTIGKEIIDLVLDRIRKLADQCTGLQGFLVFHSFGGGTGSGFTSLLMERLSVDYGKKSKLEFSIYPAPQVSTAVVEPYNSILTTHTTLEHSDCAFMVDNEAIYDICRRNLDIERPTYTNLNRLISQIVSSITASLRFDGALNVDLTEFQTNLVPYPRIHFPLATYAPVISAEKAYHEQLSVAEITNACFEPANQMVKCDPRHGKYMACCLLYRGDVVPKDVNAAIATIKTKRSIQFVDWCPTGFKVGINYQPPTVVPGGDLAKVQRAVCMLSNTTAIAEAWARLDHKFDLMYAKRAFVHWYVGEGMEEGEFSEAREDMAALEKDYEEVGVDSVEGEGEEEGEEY
UniProt P13861: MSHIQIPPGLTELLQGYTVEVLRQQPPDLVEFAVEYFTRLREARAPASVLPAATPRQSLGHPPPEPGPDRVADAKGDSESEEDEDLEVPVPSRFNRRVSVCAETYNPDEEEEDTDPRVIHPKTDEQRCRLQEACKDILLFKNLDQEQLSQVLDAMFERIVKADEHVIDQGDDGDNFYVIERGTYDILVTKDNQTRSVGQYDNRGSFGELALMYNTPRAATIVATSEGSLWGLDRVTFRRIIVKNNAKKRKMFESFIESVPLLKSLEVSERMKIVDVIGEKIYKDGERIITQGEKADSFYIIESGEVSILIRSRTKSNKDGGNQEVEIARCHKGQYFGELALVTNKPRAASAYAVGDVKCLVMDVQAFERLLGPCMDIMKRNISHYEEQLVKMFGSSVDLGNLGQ
UniProt P31323: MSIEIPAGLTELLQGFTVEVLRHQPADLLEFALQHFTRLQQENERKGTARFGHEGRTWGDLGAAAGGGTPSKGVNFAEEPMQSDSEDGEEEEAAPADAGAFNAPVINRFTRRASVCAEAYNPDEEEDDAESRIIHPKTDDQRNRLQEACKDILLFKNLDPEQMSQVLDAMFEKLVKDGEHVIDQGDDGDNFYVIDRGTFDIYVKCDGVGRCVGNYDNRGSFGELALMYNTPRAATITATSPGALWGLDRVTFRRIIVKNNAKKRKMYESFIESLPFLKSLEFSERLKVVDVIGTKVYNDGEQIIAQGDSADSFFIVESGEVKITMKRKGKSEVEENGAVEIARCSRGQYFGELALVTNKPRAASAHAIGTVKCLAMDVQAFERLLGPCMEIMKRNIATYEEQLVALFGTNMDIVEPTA

Results are given in words; binding and its absence hold for the method and conditions named. In cells and extracts the contact can be indirect. These calls come from enrichment with a bait or labelling near it, and not all partners need be listed.

The target in the assay is recombinant human paraoxonase 2 (rPON2) (human) (UniProt Q15165). Briefly: affinity purification with mass spectrometry; direct molecular fishing: purified His-tagged rPON2 (0.5 mg/mL, dialysed into modified RIPA buffer) incubated overnight at 4 °C with 5 mL HeLa extract (4.27 mg/mL), captured on nickel-NTA resin, washed twice with RIPA buffer, eluted with 300 mM …; LC-MS/MS; hits common to two independent experiments (A and B); only the target purified.

As for “ADP/ATP translocase 1 (from UniProt P12235 1-298)”, the binding entry is listed as “binds”. “ATP synthase F1 subunit alpha (from UniProt P25705 44-553)”: the binding result is on record as “binds”. “Elongation factor 1°1 (from UniProt P68104 1-462)”: the binding entry is “binds”.

As for “Keratin type II cytoskeletal 1 (from UniProt P04264 1-644)”, the binding result was “binds”.

As to “Keratin type II cytoskeletal 7 (from UniProt P08729 1-469)”, the binding result is “binds”.

With “Poly(rC)-binding protein 1 (from UniProt Q15365 1-356)”, the binding entry is reported as “binds”. The same measure for Tubulin 4B (from UniProt P68371 1-445): “binds”; for Tubulin A1B (from UniProt P68363 1-451): “binds”.

For “cAMP-dependent protein kinase type II alpha regulatory subunit (from UniProt P13861 1-404)”, the binding entry is “binds”. The same measure for “cAMP-dependent protein kinase type II beta regulatory subunit (from UniProt P31323 1-418)”: “binds”.

B1: Peroxiredoxin1 (protein, UniProt Q06830 1-199)
chain: MSSGNAKIGHPAPNFKATAVMPDGQFKDISLSDYKGKYVVFFFYPLDFTFVCPTEIIAFSDRAEEFKKLNCQVIGASVDSHFCHLAWVNTPKKQGGLGPMNIPLVSDPKRTIAQDYGVLKADEGISFRGLFIIDDKGILRQITVNDLPVGRSVDETLRLVQAFQFTDKHGEVCPAGWKPGSDTIKPDVQKSKEYFSKQK
Consider B1, for which the binding entry is listed as “binds”.

B2: Keratin type II cytoskeletal 9 (protein, UniProt P35527 1-623)
chain: MSCRQFSSSYLSRSGGGGGGGLGSGGSIRSSYSRFSSSGGGGGGGRFSSSSGYGGGSSRVCGRGGGGSFGYSYGGGSGGGFSASSLGGGFGGGSRGFGGASGGGYSSSGGFGGGFGGGSGGGFGGGYGSGFGGFGGFGGGAGGGDGGILTANEKSTMQELNSRLASYLDKVQALEEANNDLENKIQDWYDKKGPAAIQKNYSPYYNTIDDLKDQIVDLTVGNNKTLLDIDNTRMTLDDFRIKFEMEQNLRQGVDADINGLRQVLDNLTMEKSDLEMQYETLQEELMALKKNHKEEMSQLTGQNSGDVNVEINVAPGKDLTKTLNDMRQEYEQLIAKNRKDIENQYETQITQIEHEVSSSGQEVQSSAKEVTQLRHGVQELEIELQSQLSKKAALEKSLEDTKNRYCGQLQMIQEQISNLEAQITDVRQEIECQNQEYSLLLSIKMRLEKEIETYHNLLEGGQEDFESSGAGKIGLGGRGGSGGSYGRGSRGGSGGSYGGGGSGGGYGGGSGSRGGSGGSYGGGSGSGGGSGGGYGGGSGGGHSGGSGGGHSGGSGGNYGGGSGSGGGSGGGYGGGSGSRGGSGGSHGGGSGFGGESGGSYGGGEEASGSGGGYGGGSGKSSHS
On to B2, for which the binding result is reported as “binds”.

B3: Transketolase (protein, UniProt P29401 1-623)
chain: MESYHKPDQQKLQALKDTANRLRISSIQATTAAGSGHPTSCCSAAEIMAVLFFHTMRYKSQDPRNPHNDRFVLSKGHAAPILYAVWAEAGFLAEAELLNLRKISSDLDGHPVPKQAFTDVATGSLGQGLGAACGMAYTGKYFDKASYRVYCLLGDGELSEGSVWEAMAFASIYKLDNLVAILDINRLGQSDPAPLQHQMDIYQKRCEAFGWHAIIVDGHSVEELCKAFGQAKHQPTAIIAKTFKGRGITGVEDKESWHGKPLPKNMAEQIIQEIYSQIQSKKKILATPPQEDAPSVDIANIRMPSLPSYKVGDKIATRKAYGQALAKLGHASDRIIALDGDTKNSTFSEIFKKEHPDRFIECYIAEQNMVSIAVGCATRNRTVPFCSTFAAFFTRAFDQIRMAAISESNINLCGSHCGVSIGEDGPSQMALEDLAMFRSVPTSTVFYPSDGVATEKAVELAANTKGICFIRTSRPENAIIYNNNEDFQVGQAKVVLKSKDDQVTVIGAGVTLHEALAAAELLKKEKINIRVLDPFTIKPLDRKLILDSARATKGRILTVEDHYYEGGIGEAVSSAVVGEPGITVTHLAVNRVPRSGKPAELLKMFGIDRDAIAQAVRGLITKA
Consider B3, for which the binding entry is reported as “binds”.

B4: tRNA N(3)-methylcytidine methyltransferase (protein, UniProt Q6P1Q9 1-378)
chain: MAGSYPEGAPAILADKRQQFGSRFLSDPARVFHHNAWDNVEWSEEQAAAAERKVQENSIQRVCQEKQVDYEINAHKYWNDFYKIHENGFFKDRHWLFTEFPELAPSQNQNHLKDWFLENKSEVCECRNNEDGPGLIMEEQHKCSSKSLEHKTQTPPVEENVTQKISDLEICADEFPGSSATYRILEVGCGVGNTVFPILQTNNDPGLFVYCCDFSSTAIELVQTNSEYDPSRCFAFVHDLCDEEKSYPVPKGSLDIIILIFVLSAVVPDKMQKAINRLSRLLKPGGMVLLRDYGRYDMAQLRFKKGQCLSGNFYVRGDGTRVYFFTQEELDTLFTTAGLEKVQNLVDRRLQVNRGKQLTMYRVWIQCKYCKPLLSSTS
B4: the binding entry is on record as “binds”.

B5: Carbamoyl-phosphate synthase [ammonia], mitochondrial (protein, UniProt P31327 39-1500)
chain: LSVKAQTAHIVLEDGTKMKGYSFGHPSSVAGEVVFNTGLGGYPEAITDPAYKGQILTMANPIIGNGGAPDTTALDELGLSKYLESNGIKVSGLLVLDYSKDYNHWLATKSLGQWLQEEKVPAIYGVDTRMLTKIIRDKGTMLGKIEFEGQPVDFVDPNKQNLIAEVSTKDVKVYGKGNPTKVVAVDCGIKNNVIRLLVKRGAEVHLVPWNHDFTKMEYDGILIAGGPGNPALAEPLIQNVRKILESDRKEPLFGISTGNLITGLAAGAKTYKMSMANRGQNQPVLNITNKQAFITAQNHGYALDNTLPAGWKPLFVNVNDQTNEGIMHESKPFFAVQFHPEVTPGPIDTEYLFDSFFSLIKKGKATTITSVLPKPALVASRVEVSKVLILGSGGLSIGQAGEFDYSGSQAVKAMKEENVKTVLMNPNIASVQTNEVGLKQADTVYFLPITPQFVTEVIKAEQPDGLILGMGGQTALNCGVELFKRGVLKEYGVKVLGTSVESIMATEDRQLFSDKLNEINEKIAPSFAVESIEDALKAADTIGYPVMIRSAYALGGLGSGICPNRETLMDLSTKAFAMTNQILVEKSVTGWKEIEYEVVRDADDNCVTVCNMENVDAMGVHTGDSVVVAPAQTLSNAEFQMLRRTSINVVRHLGIVGECNIQFALHPTSMEYCIIEVNARLSRSSALASKATGYPLAFIAAKIALGIPLPEIKNVVSGKTSACFEPSLDYMVTKIPRWDLDRFHGTSSRIGSSMKSVGEVMAIGRTFEESFQKALRMCHPSIEGFTPRLPMNKEWPSNLDLRKELSEPSSTRIYAIAKAIDDNMSLDEIEKLTYIDKWFLYKMRDILNMEKTLKGLNSESMTEETLKRAKEIGFSDKQISKCLGLTEAQTRELRLKKNIHPWVKQIDTLAAEYPSVTNYLYVTYNGQEHDVNFDDHGMMVLGCGPYHIGSSVEFDWCAVSSIRTLRQLGKKTVVVNCNPETVSTDFDECDKLYFEELSLERILDIYHQEACGGCIISVGGQIPNNLAVPLYKNGVKIMGTSPLQIDRAEDRSIFSAVLDELKVAQAPWKAVNTLNEALEFAKSVDYPCLLRPSYVLSGSAMNVVFSEDEMKKFLEEATRVSQEHPVVLTKFVEGAREVEMDAVGKDGRVISHAISEHVEDAGVHSGDATLMLPTQTISQGAIEKVKDATRKIAKAFAISGPFNVQFLVKGNDVLVIECNLRASRSFPFVSKTLGVDFIDVATKVMIGENVDEKHLPTLDHPIIPADYVAIKAPMFSWPRLRDADPILRCEMASTGEVACFGEGIHTAFLKAMLSTGFKIPQKGILIGIQQSFRPRFLGVAEQLHNEGFKLFATEATSDWLNANNVPATPVAWPSQEGQNPSLSSIRKLIRDGSIDLVINLPNNNTKFVHDNYVIRRTAVDSGIPLLTNFQVTKLFAEAVQKSRKVDSKSLFHYRQYSAGKAA
Consider B5, for which the binding entry is reported as “binds”.

B6: Keratin type II cytoskeletal 18 (protein, UniProt P05783 1-430)
chain: MSFTTRSTFSTNYRSLGSVQAPSYGARPVSSAASVYAGAGGSGSRISVSRSTSFRGGMGSGGLATGIAGGLAGMGGIQNEKETMQSLNDRLASYLDRVRSLETENRRLESKIREHLEKKGPQVRDWSHYFKIIEDLRAQIFANTVDNARIVLQIDNARLAADDFRVKYETELAMRQSVENDIHGLRKVIDDTNITRLQLETEIEALKEELLFMKKNHEEEVKGLQAQIASSGLTVEVDAPKSQDLAKIMADIRAQYDELARKNREELDKYWSQQIEESTTVVTTQSAEVGAAETTLTELRRTVQSLEIDLDSMRNLKASLENSLREVEARYALQMEQLNGILLHLESELAQTRAEGQRQAQEYEALLNIKVKLEAEIATYRRLLEDGEDFNLGDALDSSNSMQTIQKTTTRRIVDGKVVSETNDTKVLRH
For B6, the binding entry is given as “binds”.

B7: Heterogeneous nuclear ribonucleoprotein M (protein, UniProt P52272 1-730)
chain: MAAGVEAAAEVAATEIKMEEESGAPGVPSGNGAPGPKGEGERPAQNEKRKEKNIKRGGNRFEPYANPTKRYRAFITNIPFDVKWQSLKDLVKEKVGEVTYVELLMDAEGKSRGCAVVEFKMEESMKKAAEVLNKHSLSGRPLKVKEDPDGEHARRAMQKVMATTGGMGMGPGGPGMITIPPSILNNPNIPNEIIHALQAGRLGSTVFVANLDYKVGWKKLKEVFSMAGVVVRADILEDKDGKSRGIGTVTFEQSIEAVQAISMFNGQLLFDRPMHVKMDERALPKGDFFPPERPQQLPHGLGGIGMGLGPGGQPIDANHLNKGIGMGNIGPAGMGMEGIGFGINKMGGMEGPFGGGMENMGRFGSGMNMGRINEILSNALKRGEIIAKQGGGGGGGSVPGIERMGPGIDRLGGAGMERMGAGLGHGMDRVGSEIERMGLVMDRMGSVERMGSGIERMGPLGLDHMASSIERMGQTMERIGSGVERMGAGMGFGLERMAAPIDRVGQTIERMGSGVERMGPAIERMGLSMERMVPAGMGAGLERMGPVMDRMATGLERMGANNLERMGLERMGANSLERMGLERMGANSLERMGPAMGPALGAGIERMGLAMGGGGGASFDRAIEMERGNFGGSFAGSFGGAGGHAPGVARKACQIFVRNLPFDFTWKMLKDKFNECGHVLYADIKMENGKSKGCGVVKFESPEVAERACRMMNGMKLSGREIDVRIDRNA
As for B7, the binding entry is on record as “binds”.
